# Data as given in PubChem BioAssay AID1259308 (NCATS, 2017).
# Screen: 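Knock-downs that increase output of a recombinant reporter protein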 (primary screen)
# Cells: human HEK293 embryonic kidney cells stably expressing firefly luciferase (HEK-CMV-Luc2-Hygro)
# Reagent: single siRNA against human genes, 0.8 pmol siRNA per well
# Time to read-out: 72 h
# Detection: 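Luciferase light (ONE-Glo) measured on one replicate plate set and viability (CellTiter-Glo) on the other, scaled to a negative control siRNA, with robust z-scores and luciferase per cell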
# Direction: total luciferase, z-score and total luciferase, % of control: higher = more reporter protein produced; luciferase per cell, z-score: higher = more reporter output per viable cell
# Call rule: 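Active when the median/MAD z-score for overall luciferase is greater than 3; a gene was taken forward for validation with new siRNAs if at least two of its three siRNAs passed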
# Meaning of the calls: active = raised luciferase; inactive = no rise
# This is an unselected part of about 59,000 deposited reagents. Over the whole deposit, about 1,510 (2.6%) were called active. 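Calls use total luciferase alone and ignore viability, so some active siRNAs may act by altering cell number.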 Reagents against one gene are numbered here. Further read-outs or replicates are left out here.
target,siRNA no.,"total luciferase, z-score","total luciferase, % of control","luciferase per cell, z-score",Outcome
GZF1,1,-0.77,66.6,-0.539,inactive
GZF1,2,-1.12,59.7,-1.13,inactive
GZF1,3,2.7,136,3.06,inactive
HID1,1,0.559,93,0.444,inactive
HID1,2,-0.0676,80.5,0.011,inactive
HID1,3,0.236,86.6,0.191,inactive
ARHGAP9,1,1.64,114,1.69,inactive
ARHGAP9,2,-1.04,61.3,-1.14,inactive
ARHGAP9,3,1.17,105,0.271,inactive
SOCS4,1,-0.895,64.1,-1.07,inactive
SOCS4,2,0.781,97.4,0.391,inactive
SOCS4,3,-0.603,69.9,-0.967,inactive
RAMP1,1,0.361,89.1,-0.216,inactive
RAMP1,2,-0.649,69,-0.749,inactive
RAMP1,3,-0.124,79.4,0.0136,inactive
IFIT3,1,-0.483,72.3,-1.28,inactive
IFIT3,2,-0.114,79.6,0.755,inactive
IFIT3,3,3.88,159,2.17,active
MIR205HG,1,-0.0184,81.5,-0.466,inactive
MIR205HG,2,-2.22,37.7,-1.34,inactive
MIR205HG,3,0.0902,83.7,-0.0869,inactive
PAIP2,1,3.87,159,2.13,active
PAIP2,2,-1.07,60.6,-1.5,inactive
PAIP2,3,-0.0197,81.5,0.018,inactive
PTPN7,1,0.688,95.6,0.778,inactive
PTPN7,2,1.01,102,0.946,inactive
PTPN7,3,-0.644,69.1,-1.2,inactive
ZIC5,1,-0.421,73.5,-0.554,inactive
ZIC5,2,-0.979,62.4,-0.235,inactive
ZIC5,3,1.19,106,0.403,inactive
LINC00917,1,-0.151,78.9,0.0502,inactive
LINC00917,2,-3.3,16.2,-3.11,inactive
LINC00917,3,-0.0217,81.5,1.09,inactive
GLYCTK,1,2.52,132,2.04,inactive
GLYCTK,2,1.06,103,0.838,inactive
GLYCTK,3,2.47,131,1.84,inactive
ARHGEF1,1,-0.0438,81,-0.383,inactive
ARHGEF1,2,1.46,111,1.07,inactive
ARHGEF1,3,-1.57,50.6,-1.84,inactive
SLC25A51P1,1,-1.31,55.8,-1.55,inactive
SLC25A51P1,2,1.31,108,1.1,inactive
SLC25A51P1,3,-0.267,76.6,-0.136,inactive
MPZL3,1,0.551,92.8,0.241,inactive
MPZL3,2,0.125,84.4,0.00689,inactive
MPZL3,3,0.0902,83.7,0.134,inactive

Active calls, among the entries above:
target,siRNA no.,"total luciferase, z-score","total luciferase, % of control","luciferase per cell, z-score",Outcome
IFIT3,3,3.88,159,2.17,active
PAIP2,1,3.87,159,2.13,active

Further records:
target,siRNA no.,"total luciferase, z-score","total luciferase, % of control","luciferase per cell, z-score",Outcome
WBP2NL,1,0.227,86.4,-0.214,inactive
WBP2NL,2,-0.0749,80.4,0.302,inactive
WBP2NL,3,-0.288,76.1,-0.131,inactive
MLH3,1,-1.23,57.4,-1.53,inactive
MLH3,2,-0.212,77.7,-0.569,inactive
MLH3,3,-0.726,67.4,-1.12,inactive
MED17,1,-1.59,50.3,-0.574,inactive
MED17,2,-1.34,55.2,-1.08,inactive
MED17,3,-2.41,33.9,-1.9,inactive
PRR22,1,0.674,95.3,0.287,inactive
PRR22,2,0.123,84.3,0.635,inactive
PRR22,3,2.09,123,1.95,inactive
HLA-E,1,0.226,86.4,0.473,inactive
HLA-E,2,-0.535,71.3,-0.218,inactive
HLA-E,3,2.79,137,1.77,inactive
LINC02915,1,0.376,89.4,1.18,inactive
LINC02915,2,-0.0962,80,0.242,inactive
LINC02915,3,3.73,156,2.17,active
SNRNP70,1,3.28,147,1.98,active
SNRNP70,2,1.09,104,0.278,inactive
SNRNP70,3,0.945,101,0.428,inactive
CNP,1,-0.158,78.7,0.956,inactive
CNP,2,-0.273,76.5,-0.634,inactive
CNP,3,0.258,87,0.78,inactive
OTUD6B,1,0.755,96.9,0.447,inactive
OTUD6B,2,0.0972,83.8,0.623,inactive
OTUD6B,3,-0.274,76.4,0.0179,inactive
GPR150,1,3.61,154,2.44,active
GPR150,2,-0.0894,80.1,-0.298,inactive
GPR150,3,-1.04,61.2,-0.163,inactive
